# Results reported in patent US12031897B2, “Target-locking single-molecule nanoscopy” (Memorial Sloan Kettering Cancer Center, priority 2019, dated 2024).
# Some results were stated once for a whole list of compounds, not compound by compound. Some ranges recur; such a range may be that of the whole group of compounds.
# System: Pou5f1 transcription site (MCP-mNeonGreen nascent RNA)
# Test: MCP-mNeonGreen nascent transcription at the endogenous Pou5f1 locus in mESCs (live-cell imaging)
# Assay type: cell-based, mouse
# Details: 10 μM flavopiridol, 10 μM triptolide or 1 μM JQ1, mean±S.D.
# Experimental: All the mESCs were cultured and maintained in +2i media with appropriate selection drugs on 0.1% gelatin-coated dishes, at 37° C. in a humidified 5% CO2 incubator. +2i media contain D-MEM (Thermo Fisher Scientific 10313021), 15% fetal bovine serum (Gemini Bio 100-500), 0.1 mM β-mercaptoethanol (Thermo Fisher Scientific 21985023), 2 mM L-alanyl-L-glutamine (Thermo Fisher Scientific 35050079), 1×MEM nonessential amino acids (Thermo Fisher Scientific 11140076), 1000 U/mL LIF (Millipore ESG1107), […] (Millipore 361559) and 1 μM PD0325901 (Axon Medichem 1408). OMG and NMG SNAP-Rpb1 cells were cultured with +2i media plus 3 μg/ml α-amanitin.
# Before imaging, cells were seeded onto 8-chamber coverglass (LabTek, 155411) coated with 5 μg/ml laminin (BioLamina LN511), in −2i media (OMG) or +2i media (NMG) and appropriate drugs. […]
# Wide-Field Cell Imaging Experiments. […] The CCD data were analyzed using IDL 6.4 (ITTVIS). Maximum projection images were calculated for each stack, and the resulting 11 sec/frame movie was used to track the intensities of individual tdPCP-EGFP-tagged transcription sites. […] The auto-correlation function was calculated (for the tdPCP-EGFP fluctuation analysis), or the data were imported in Origin 8.5.0 (OriginLab) and the trace fitted to a single-exponential decay (for the transcription inhibition experiments).
row,Structure (SMILES),MCP-mNeonGreen exponential decay time
1,CN1CC[C@H](c2c(O)cc(O)c3c(=O)cc(-c4ccccc4Cl)oc23)[C@H](O)C1 [flavopiridol],340 to 380 s
2,CC(C)[C@]12O[C@H]1[C@@H]1O[C@]13[C@]1(O[C@H]1C[C@H]1C4=C(CC[C@@]13C)C(=O)OC4)[C@@H]2O [triptolide],340 to 380 s
